Assay: RRT study: LC-MS/MS urinary proteomics, AKI after cardiac surgery, RRT vs No RRT
Parameters: species or system human
Details: patients who did vs did not require RRT/dialysis; for Up or Down: direction of urinary abundance; for Mean Fold Change: read with the Up or Down column

B1: Kininogen-1 (protein, UniProt P01042 19-644, looked up)
Kininogen-1: QESQSEEIDCNDKDLFKAVDAALKKYNSQNQSNNQFVLYRITEATKTVGSDTFYSFKYEIKEGDCPVQSGKTWQDCEYKDAAKAATGECTATVGKRSSTKFSVATQTCQITPAEGPVVTAQYDCLGCVHPISTQSPDLEPILRHGIQYFNNNTQHSSLFMLNEVKRAQRQVVAGLNFRITYSIVQTNCSKENFLFLTPDCKSLWNGDTGECTDNAYIDIQLRIASFSQNCDIYPGKDFVQPPTKICVGCPRDIPTNSPELEETLTHTITKLNAENNATFYFKIDNVKKARVQVVAGKKYFIDFVARETTCSKESNEELTESCETKKLGQSLDCNAEVYVVPWEKKIYPTVNCQPLGMISLMKRPPGFSPFRSSRIGEIKEETTVSPPHTSMAPAQDEERDSGKEQGHTRRHDWGHEKQRKHNLGHGHKHERDQGHGHQRGHGLGHGHEQQHGLGHGHKFKLDDDLEHQGGHVLDHGHKHKHGHGHGKHKNKGKKNGKHNGWKTEHLASSSEDSTTPSAQTQEKTEGPTPIPSLAKPGVTVTFSDFQDSDLIATMMPPISPAPIQSDDDWIPDIQIDPNGLSFNPISDFPDTTSPKCPGRPWKSVSEINPTTQMKESYYFDLTDGLS
Up or Down: Up | Mean Fold Change: 1.18

B2: EGF-containing fibulin-like extracellular matrix protein 1 (protein, UniProt Q12805 18-493, looked up)
EGF-containing fibulin-like …: QDTEETITYTQCTDGYEWDPVRQQCKDIDECDIVPDACKGGMKCVNHYGGYLCLPKTAQIIVNNEQPQQETQPAEGTSGATTGVVAASSMATSGVLPGGGFVASAAAVAGPEMQTGRNNFVIRRNPADPQRIPSNPSHRIQCAAGYEQSEHNVCQDIDECTAGTHNCRADQVCINLRGSFACQCPPGYQKRGEQCVDIDECTIPPYCHQRCVNTPGSFYCQCSPGFQLAANNYTCVDINECDASNQCAQQCYNILGSFICQCNQGYELSSDRLNCEDIDECRTSSYLCQYQCVNEPGKFSCMCPQGYQVVRSRTCQDINECETTNECREDEMCWNYHGGFRCYPRNPCQDPYILTPENRCVCPVSNAMCRELPQSIVYKYMSIRSDRSVPSDIFQIQATTIYANTINTFRIKSGNENGEFYLRQTSPVSAMLVLVKSLSGPREHIVDLEMLTVSSIGTFRTSSVLRLTIIVGPFSF
Up or Down: Up | Mean Fold Change: 1.932

B3: Peptidase inhibitor 16 (protein, UniProt Q6UXB8 28-463, looked up)
Peptidase inhibitor 16: LTDEEKRLMVELHNLYRAQVSPTASDMLHMRWDEELAAFAKAYARQCVWGHNKERGRRGENLFAITDEGMDVPLAMEEWHHEREHYNLSAATCSPGQMCGHYTQVVWAKTERIGCGSHFCEKLQGVEETNIELLVCNYEPPGNVKGKRPYQEGTPCSQCPSGYHCKNSLCEPIGSPEDAQDLPYLVTEAPSFRATEASDSRKMGTPSSLATGIPAFLVTEVSGSLATKALPAVETQAPTSLATKDPPSMATEAPPCVTTEVPSILAAHSLPSLDEEPVTFPKSTHVPIPKSADKVTDKTKVPSRSPENSLDPKMSLTGARELLPHAQEEAEAEAELPPSSEVLASVFPAQDKPGELQATLDHTGHTSSKSLPNFPNTSATANATGGRALALQSSLPGAEGPDKPSVVSGLNSGPGHVWGPLLGLLLLPPLVLAGIF
Up or Down: Up | Mean Fold Change: 2.388

B4: Acyl-CoA-binding protein (protein, UniProt P07108 2-87, looked up)
Acyl-CoA-binding protein: SQAEFEKAAEEVRHLKTKPSDEEMLFIYGHYKQATVGDINTERPGMLDFTGKAKWDAWNELKGTSKEDAMKAYINKVEELKKKYGI
Up or Down: Up | Mean Fold Change: 17.89

B5: Lymphatic vessel endothelial hyaluronic acid receptor 1 (protein, UniProt Q9Y5Y7 20-322, looked up)
Lymphatic vessel endothelial …: LVQGSLRAEELSIQVSCRIMGITLVSKKANQQLNFTEAKEACRLLGLSLAGKDQVETALKASFETCSYGWVGDGFVVISRISPNPKCGKNGVGVLIWKVPVSRQFAAYCYNSSDTWTNSCIPEIITTKDPIFNTQTATQTTEFIVSDSTYSVASPYSTIPAPTTTPPAPASTSIPRRKKLICVTEVFMETSTMSTETEPFVENKAAFKNEAAGFGGVPTALLVLALLFFGAAAGLGFCYVKRYVKAFPFTNKNQQKEMIETKVVKEEKANDSNPNEESKKTDKNPEESKSPSKTTVRCLEAEV
Up or Down: Up | Mean Fold Change: 1.137

B6: Complement decay-accelerating factor (protein, UniProt P08174 35-353, looked up)
Complement decay-accelerating …: DCGLPPDVPNAQPALEGRTSFPEDTVITYKCEESFVKIPGEKDSVICLKGSQWSDIEEFCNRSCEVPTRLNSASLKQPYITQNYFPVGTVVEYECRPGYRREPSLSPKLTCLQNLKWSTAVEFCKKKSCPNPGEIRNGQIDVPGGILFGATISFSCNTGYKLFGSTSSFCLISGSSVQWSDPLPECREIYCPAPPQIDNGIIQGERDHYGYRQSVTYACNKGFTMIGEHSIYCTVNNDEGEWSGPPPECRGKSLTSKVPPTVQKPTTVNVPTTEVSPTSQKTTTKTTTPNAQATRSTPVSRTTKHFHETTPNKGSGTTS
Up or Down: Up | Mean Fold Change: 1.188

B7: Lithostathine-1-alpha (protein, UniProt P05451 23-166, looked up)
Lithostathine-1-alpha: QEAQTELPQARISCPEGTNAYRSYCYYFNEDRETWVDADLYCQNMNSGNLVSVLTQAEGAFVASLIKESGTDDFNVWIGLHDPKKNRRWHWSSGSLVSYKSWGIGAPSSVNPGYCVSLTSSTGFQKWKDVPCEDKFSFVCKFKN
Up or Down: Up | Mean Fold Change: 1.1406

B8: Tripeptidyl-peptidase 1 (protein, UniProt O14773 196-563, looked up)
Tripeptidyl-peptidase 1: LHLGVTPSVIRKRYNLTSQDVGSGTSNNSQACAQFLEQYFHDSDLAQFMRLFGGNFAHQASVARVVGQQGRGRAGIEASLDVQYLMSAGANISTWVYSSPGRHEGQEPFLQWLMLLSNESALPHVHTVSYGDDEDSLSSAYIQRVNTELMKAAARGLTLLFASGDSGAGCWSVSGRHQFRPTFPASSPYVTTVGGTSFQEPFLITNEIVDYISGGGFSNVFPRPSYQEEAVTKFLSSSPHLPPSSYFNASGRAYPDVAALSDGYWVVSNRVPIPWVSGTSASTPVFGGILSLINEHRILSGRPPLGFLNPRLYQQHGAGLFDVTRGCHESCLDEEVEGQGFCSGPGWDPVTGWGTPNFPALLKTLLNP
Up or Down: Up | Mean Fold Change: 1.239

B9: Complement factor I (protein, UniProt P05156 19-583, looked up)
Complement factor I: KVTYTSQEDLVEKKCLAKKYTHLSCDKVFCQPWQRCIEGTCVCKLPYQCPKNGTAVCATNRRSFPTYCQQKSLECLHPGTKFLNNGTCTAEGKFSVSLKHGNTDSEGIVEVKLVDQDKTMFICKSSWSMREANVACLDLGFQQGADTQRRFKLSDLSINSTECLHVHCRGLETSLAECTFTKRRTMGYQDFADVVCYTQKADSPMDDFFQCVNGKYISQMKACDGINDCGDQSDELCCKACQGKGFHCKSGVCIPSQYQCNGEVDCITGEDEVGCAGFASVTQEETEILTADMDAERRRIKSLLPKLSCGVKNRMHIRRKRIVGGKRAQLGDLPWQVAIKDASGITCGGIYIGGCWILTAAHCLRASKTHRYQIWTTVVDWIHPDLKRIVIEYVDRIIFHENYNAGTYQNDIALIEMKKDGNKKDCELPRSIPACVPWSPYLFQPNDTCIVSGWGREKDNERVFSLQWGEVKLISNCSKFYGNRFYEKEMECAGTYDGSIDACKGDSGGPLVCMDANNVTYVWGVVSWGENCGKPEFPGVYTKVANYFDWISYHVGRPFISQYNV
Up or Down: Up | Mean Fold Change: 1.705

B10: WNT1-inducible-signaling pathway protein 2 (protein, UniProt O76076 24-250, looked up)
CCN family member 5: QLCPTPCTCPWPPPRCPLGVPLVLDGCGCCRVCARRLGEPCDQLHVCDASQGLVCQPGAGPGGRGALCLLAEDDSSCEVNGRLYREGETFQPHCSIRCRCEDGGFTCVPLCSEDVRLPSWDCPHPRRVEVLGKCCPEWVCGQGGGLGTQPLPAQGPQFSGLVSSLPPGVPCPEWSTAWGPCSTTCGLGMATRVSNQNRFCRLETQRRLCLSRPCPPSRGRSPQNSAF
Up or Down: Up | Mean Fold Change: 1.411

B11: Lactotransferrin (protein, UniProt P02788 20-710, looked up)
Lactotransferrin: GRRRSVQWCAVSQPEATKCFQWQRNMRKVRGPPVSCIKRDSPIQCIQAIAENRADAVTLDGGFIYEAGLAPYKLRPVAAEVYGTERQPRTHYYAVAVVKKGGSFQLNELQGLKSCHTGLRRTAGWNVPIGTLRPFLNWTGPPEPIEAAVARFFSASCVPGADKGQFPNLCRLCAGTGENKCAFSSQEPYFSYSGAFKCLRDGAGDVAFIRESTVFEDLSDEAERDEYELLCPDNTRKPVDKFKDCHLARVPSHAVVARSVNGKEDAIWNLLRQAQEKFGKDKSPKFQLFGSPSGQKDLLFKDSAIGFSRVPPRIDSGLYLGSGYFTAIQNLRKSEEEVAARRARVVWCAVGEQELRKCNQWSGLSEGSVTCSSASTTEDCIALVLKGEADAMSLDGGYVYTAGKCGLVPVLAENYKSQQSSDPDPNCVDRPVEGYLAVAVVRRSDTSLTWNSVKGKKSCHTAVDRTAGWNIPMGLLFNQTGSCKFDEYFSQSCAPGSDPRSNLCALCIGDEQGENKCVPNSNERYYGYTGAFRCLAENAGDVAFVKDVTVLQNTDGNNNEAWAKDLKLADFALLCLDGKRKPVTEARSCHLAMAPNHAVVSRMDKVERLKQVLLHQQAKFGRNGSDCPDKFCLFQSETKNLLFNDNTECLARLHGKTTYEKYLGPQYVAGITNLKKCSTSPLLEACEFLRK
Up or Down: Up | Mean Fold Change: 1.538

B12: Endonuclease domain-containing 1 protein (protein, UniProt O94919 22-500, looked up)
Endonuclease …: RLVGEEEAGFGECDKFFYAGTPPAGLAADSHVKICQRAEGAERFATLYSTRDRIPVYSAFRAPRPAPGGAEQRWLVEPQIDDPNSNLEEAINEAEAITSVNSLGSKQALNTDYLDSDYQRGQLYPFSLSSDVQVATFTLTNSAPMTQSFQERWYVNLHSLMDRALTPQCGSGEDLYILTGTVPSDYRVKDKVAVPEFVWLAACCAVPGGGWAMGFVKHTRDSDIIEDVMVKDLQKLLPFNPQLFQNNCGETEQDTEKMKKILEVVNQIQDEERMVQSQKSSSPLSSTRSKRSTLLPPEASEGSSSFLGKLMGFIATPFIKLFQLIYYLVVAILKNIVYFLWCVTKQVINGIESCLYRLGSATISYFMAIGEELVSIPWKVLKVVAKVIRALLRILCCLLKAICRVLSIPVRVLVDVATFPVYTMGAIPIVCKDIALGLGGTVSLLFDTAFGTLGGLFQVVFSVCKRIGYKVTFDNSGEL
Up or Down: Up | Mean Fold Change: 1.924
